Laboratory results reported in article doi:10.1101/2025.06.30.651016.
These are yes or no findings as the source states them, for the method shown. Binding seen in cells or lysates may run through a third protein. A result given as binding can be weak or reduced; the word gives no strength. Where a sequence is shown, tags or fusion partners need not be part of it.

What follows are substances tested against T1, ASIC1a C-terminally tagged with GFP followed by 1D4 tag (human) (UniProt P78348) (assay: co-IP).
T1 sequence: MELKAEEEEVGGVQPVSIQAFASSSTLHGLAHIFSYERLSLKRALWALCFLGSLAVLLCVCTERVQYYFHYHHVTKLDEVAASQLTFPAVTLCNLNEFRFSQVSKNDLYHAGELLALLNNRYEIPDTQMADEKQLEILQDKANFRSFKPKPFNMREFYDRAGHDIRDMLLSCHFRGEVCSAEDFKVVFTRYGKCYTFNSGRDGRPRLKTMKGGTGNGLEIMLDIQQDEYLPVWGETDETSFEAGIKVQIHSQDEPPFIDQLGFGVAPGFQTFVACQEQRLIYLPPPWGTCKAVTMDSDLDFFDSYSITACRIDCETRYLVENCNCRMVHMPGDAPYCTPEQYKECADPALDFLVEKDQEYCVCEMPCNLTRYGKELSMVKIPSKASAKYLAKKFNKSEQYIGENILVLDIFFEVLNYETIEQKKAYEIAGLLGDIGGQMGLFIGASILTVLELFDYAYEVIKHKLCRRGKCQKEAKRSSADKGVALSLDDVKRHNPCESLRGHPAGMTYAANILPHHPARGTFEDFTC

| binding | Substance |
| --- | --- |
| binds | MCT4-CTD (truncated MCT4 comprised of only the C-terminal domain) (human) (domain or fragment) |
| binds | MCT1-NTD (truncated MCT1 comprised of only the N-terminal domain) (human) (domain or fragment) |
| binds | MCT4-NTD (truncated MCT4 comprised of only the N-terminal domain) (human) (domain or fragment) |
| binds | MCT1-CTD (truncated MCT1 comprised of only the C-terminal domain) (human) (domain or fragment) |
